Source: paper PMC5602324

Legend:
[1] = molecular target: paclitaxel-stabilised microtubules (polymerised αβ-tubulin) (bovine); test: cryo-EM structure; MKLP2-MD with 2 mM AMPPNP on paclitaxel-stabilised MTs (13-protofilament); BRB20/BRB80; both purified
[2] = molecular target: α-tubulin (within the microtubule) (bovine); test: as above
[3] = molecular target: β-tubulin (within the microtubule) (bovine); test: as above
[4] = molecular target: paclitaxel-stabilised microtubules (polymerised αβ-tubulin) (bovine); test: cryo-EM structure; MKLP2-MD with 2 mM ADP on GMPCPP, paclitaxel-stabilised MTs (14-protofilament); BRB20/BRB80; both purified
[5] = molecular target: α-tubulin (within the microtubule) (bovine); test: as above
[6] = molecular target: β-tubulin (within the microtubule) (bovine); test: as above
[7] = molecular target: paclitaxel-stabilised microtubules (polymerised αβ-tubulin) (bovine); test: cryo-EM structure; MKLP2-MD with 2 mM ADP + AlF4 (ADP.AlFx) on paclitaxel-stabilised MTs (13-protofilament); BRB20/BRB80; both purified
[8] = molecular target: α-tubulin (within the microtubule) (bovine); test: as above
[9] = molecular target: β-tubulin (within the microtubule) (bovine); test: as above
[10] = molecular target: paclitaxel-stabilised microtubules (polymerised αβ-tubulin) (bovine); test: cryo-EM structure; MKLP2-MD without nucleotide (apyrase 10 units/ml) on paclitaxel-stabilised MTs (13-protofilament); BRB20/BRB80; both purified
[11] = molecular target: α-tubulin (within the microtubule) (bovine); test: as above
[12] = molecular target: β-tubulin (within the microtubule) (bovine); test: as above

Measured: binding

B1: MKLP2 motor domain, construct 25–520 (domain or fragment, UniProt P97329 25-520)
chain: ESTAADLRSVVRKDLLSDCSVISASLEDKQALLEDTSEKVKVYLRIRPFLTSELDRQEDQGCVCIENTETLVLQAPKDSFALKSNERGVGQATHKFTFSQIFGPEVGQVAFFNLTMKEMVKDVLKGQNWLIYTYGVTNSGKTYTIQGTSKDAGILPQSLALIFNSLQGQLHPTPDLKPLLSNEVIWLDSKQIRQEEMKKLSLLIGGLQEEELSTSVKKRVHTESRIGASNSFDSGVAGLSSTSQFTSSSQLDETSQLWAQPDTVPVSVPADIRFSVWISFFEIYNELLYDLLEPPSHQHKRQTLRLCEDQNGNPYVKDLNWIHVRDVEEAWKLLKVGRKNQSFASTHMNQQSSRSHSIFSIRILHLQGEGDIVPKISELSLCDLAGSERCKHQKSGERLKEAGNINTSLHTLGRCIAALRQNQQNRSKQNLIPFRDSKLTRVFQGFFTGRGRSCMIVNVNPCASTYDETLHAAKFSALASQLVHAPPVHLGIPSLH
binds: [1] | [2] | [3] | [4] | [5] | [6] | [7] | [8] | [9] | [10] | [11] | [12]

Results are given in words; binding and its absence hold for the method and conditions named. Binding can be weak; no strength is given.
